Experimental data from article PMC10076020.
These are yes or no findings as the source states them, for the method shown. In cells and extracts the contact can be indirect. Some binding calls cover weakened binding; strength is not graded here.

Target: T1, interferon regulatory factor 9 (human (endogenous in SK-N-SH)), Q00978
T1 chain: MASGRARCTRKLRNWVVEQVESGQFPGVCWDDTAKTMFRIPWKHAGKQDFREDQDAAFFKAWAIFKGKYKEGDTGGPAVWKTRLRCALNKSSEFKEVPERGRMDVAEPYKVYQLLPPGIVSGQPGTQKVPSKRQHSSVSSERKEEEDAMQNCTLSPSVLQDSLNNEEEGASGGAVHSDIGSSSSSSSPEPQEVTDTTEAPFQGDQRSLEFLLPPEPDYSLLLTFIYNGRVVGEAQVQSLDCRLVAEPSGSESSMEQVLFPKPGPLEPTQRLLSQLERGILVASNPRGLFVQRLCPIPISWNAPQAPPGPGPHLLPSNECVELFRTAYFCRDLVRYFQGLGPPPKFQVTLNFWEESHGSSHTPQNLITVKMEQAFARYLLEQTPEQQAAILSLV
Assay: co-IP; SK-N-SH cells; anti-IRF9, anti-STAT1 and anti-STAT2 used for co-IP, precipitates detected by immunoblotting, IgG as negative control; control cells and cells with PTBP2 knockdown or overexpression, STAT1 or STAT2 siRNA
Conditions: remark: other sources report otherwise

B1: signal transducers and activators of transcription 1, P42224 1-750 (protein)
chain: MSQWYELQQLDSKFLEQVHQLYDDSFPMEIRQYLAQWLEKQDWEHAANDVSFATIRFHDLLSQLDDQYSRFSLENNFLLQHNIRKSKRNLQDNFQEDPIQMSMIIYSCLKEERKILENAQRFNQAQSGNIQSTVMLDKQKELDSKVRNVKDKVMCIEHEIKSLEDLQDEYDFKCKTLQNREHETNGVAKSDQKQEQLLLKKMYLMLDNKRKEVVHKIIELLNVTELTQNALINDELVEWKRRQQSACIGGPPNACLDQLQNWFTIVAESLQQVRQQLKKLEELEQKYTYEHDPITKNKQVLWDRTFSLFQQLIQSSFVVERQPCMPTHPQRPLVLKTGVQFTVKLRLLVKLQELNYNLKVKVLFDKDVNERNTVKGFRKFNILGTHTKVMNMEESTNGSLAAEFRHLQLKEQKNAGTRTNEGPLIVTEELHSLSFETQLCQPGLVIDLETTSLPVVVISNVSQLPSGWASILWYNMLVAEPRNLSFFLTPPCARWAQLSEVLSWQFSSVTKRGLNVDQLNMLGEKLLGPNASPDGLIPWTRFCKENINDKNFPFWLWIESILELIKKHLLPLWNDGCIMGFISKERERALLKDQQPGTFLLRFSESSREGAITFTWVERSQNGGEPDFHAVEPYTKKELSAVTFPDIIRNYKVMAAENIPENPLKYLYPNIDKDHAFGKYYSRPKEAPEPMELDGPKGTGYIKTELISVSEVHPSRLQTTDNLLPMSPEEFDEVSRIVGSVEFDSMMNTV
Question: Which binding does the source give for B1 here?
Answer: binds
